Measurements from US7408022B2, “Composition and method for increasing apoptosis in cancer cells” (Celtek Bioscience, LLC, priority 2004, dated 2008).
“Also recorded” adds a separate entry of the source. Part of at least one peptide drawing is inferred or uncertain, most often the ends. Peptide text beside a SMILES is read from it.

Assays:
[1] = test system: PC3 cells; assay: Indirect immunofluorescence assay for peptide cellular import; type: cell-based, Human; conditions: 30 μM, 1 hour, 37° C., fluorescence microscopy
[2] = test system: PC3 cells; assay: Flow cytometric analysis of annexin V/PI stained cells; type: cell-based, Human; conditions: 30 μM, etoposide 5 μg/ml, 21 h
[3] = test system: LNCaP cells; assay: as above; type: cell-based, Human; conditions: 30 μM, etoposide 5 μg/ml, 21 h
[4] = test system: DU145 cells; assay: as above; type: cell-based, Human
Method: PCA cells were grown on 60-mm dishes to a confluence of 50-60%. These cells were incubated with different concentrations of peptides for 30 min at 37° C. followed by the treatment with TNF-α (10 ng/ml), cisplatin (2-30 μg/ml), etoposide (2-20 μg/ml) or diluent for an additional 21 h at 37° C. Phosphatidylserine exposure on apoptotic cells was measured by their ability to bind Annexin V. Specifically, cells were harvested by trypsinization. The trypsinized cells, media and PBS washes were combined and cells collected by centrifugation. […] Stained cells were analyzed by flow cytometry. A minimum 20,000 events for each sample was measured.

[5] = test system: LNCaP cells; assay: Indirect immunofluorescence assay for peptide cellular import; type: cell-based, Human; conditions: 30 μM, 1 hour, 37° C., fluorescence microscopy
[6] = test system: DU145 cells; assay: TUNEL assay; type: cell-based, Human
Method: DU145 cells were grown on 8-well chamber slides to a confluence of 70-80%. The cells were then incubated with different concentrations of peptides or diluent for 30 min at 37° C. followed by the treatment with cisplatin (5 μg/ml) or diluent for an additional 16 h. The cells were air-dried and fixed in 4% paraformaldehyde at room temperature for 1 h. The cells were then washed with PBS and permeabilized with permeabilization solution (0.1% Triton X-100 in 0.1% sodium citrate) for 2 min on ice. Apoptosis was detected using TUNEL method “in situ cell death detection POD” according to the manufacturer's instructions (Roche, Indianapolis, Ind.). The fluorescein-labeled DNA strand breaks due to apoptosis were visualized under light microscope (Microstar IV, Reichard, Buffalo, N.Y.) by using anti-fluorescein antibody conjugated POD (peroxidase) at ×40 magnification. The images were analyzed using a Pixera digital camera.

[7] = test system: caspase-3 activity in PC3 cells; assay: Spectrofluorimetric caspase 3 quantification; type: cell-based, Human; conditions: 30 μM with etoposide 5 μg/ml, 16 h
[8] = Quantitative indirect immunofluorescence assay of peptide cellular import (96-well plates); type: cell-based; conditions: mean ±SEM
From the text: This indirect immunofluoresence assay was also utilized to quantitate peptide cellular import. Briefly, cells grown in 96-well plates will be treated with peptides for different time periods, and then subjected to an indirect immunofluorescence assay using anti-peptide antibody and FITC-labeled anti-rabbit antibody as described above. Cells were then lysed with 10% SDS and the fluorescence in the soluble cell solutions was quantified by a Cytofluor™ 2300 reader (Millipore) at 485/560 nm. The fluorescence readings were calculated by subtracting […] of peptide-untreated sample. The data were expressed as mean ±SEM of three independent experiments performed in quintuplicate samples. The kinetics of imported CB5005 peptide (SEQ ID NO: 4) was studied by using this quantitative.

[9] = test system: NF-κB nuclear translocation in DU145 cells; assay: Western blot analysis of NF-κB p50 protein in nuclear extracts; type: cell-based, Human; conditions: CB5005 30 μM, CB5003 90 μM, CB5007 30 μM for 30 min, then TNF-α 10 ng/ml 1 h
Method: (§1) PCA cells were grown on 60-mm dishes to a confluence of 70-80%. The cells were incubated with different concentrations of peptides for 30 min at 37° C., followed by treatment with TNF-α (10 ng/ml) for an additional 1 h at 37° C., as indicated, or incubated with peptide alone for 16 hours. After the treatment, cells were washed with ice-cold PBS and lysed in 500 μl of buffer A (10 mM HEPES, pH 7.9, 10 mM KCl, 0.1 mM EDTA, 0.1 mM EGTA, 0.4% Nonidet P-40, 1 mM DTT, 0.5 mM PMSF and 1 μg/ml each of leupeptin, aprotinin, pepstatin, chymostatin and antipain) on ice for 10 min. Nuclei were pelleted by centrifugation at high speed and washed with 500 μl of buffer A. Nuclei were then resuspended in 40 μl of buffer B (20 mM HEPES, pH 7.9, 400 mM NaCl, 1 mM EDTA, 1 mM EGTA, 1 mM DTT, 1 mM PMSF and 1 μg/ml each of leupeptin, aprotinin, pepstatin, chymostatin and antipain). The protein concentration of nuclear extract was determined using Pierce BCA protein assay and equalized among samples using buffer B.
(§2) Equal amounts of proteins were heat-treated in 2×SDS sample loading buffer at 100° C. for 5 minutes and fractionated by 10% SDS polyacrylamide electrophoresis. […] After blocking with 5% nonfat milk in TBS (10 mM Tris-HCl, pH 7.6, 70 mM NaCl and 0.05% Tween 20) for 30 minutes, nuclear NFκB p50 was detected by using an anti-p50 IgG antibody (1:5000), (Upstate, Lake Placid, N.Y.). […]

[10] = test system: NF-κB nuclear translocation in LNCaP cells; assay: as above; type: cell-based, Human; conditions: peptide 30 min, then TNF-α 10 ng/ml 1 h
Method: as §1, §2

[11] = test system: DU145 cells; assay: Annexin V/PI fluorescence microscopy apoptosis assay; type: cell-based, Human; conditions: peptide 30 μM 30 min, then cisplatin 5 μg/ml 5 h (co-treatment)
Method: DU145 cells were grown on 4-well chamber slides to a confluence of 70-80%. Cells were then treated with CB5005 peptide (SEQ ID NO: 4) (30 μM) or diluent for 30 min at 37° C. followed by cisplatin (5 μg/ml) for an additional 5 h. […] The chamber slides were mounted in Poly/mount (Polysciences, Warrington, Pa.) and analyzed with a fluorescence microscope (Microstar IV, Reichard, Buffalo, N.Y.) using ×100 oil immersion lens. The color images were analyzed by a Pixera digital camera and stored in JPG format.

[12] = test system: neuroblastoma N2a cells; assay: Indirect immunofluorescence assay for peptide cellular import; type: cell-based; conditions: 30 μM, 1 hour, 37° C., fluorescence microscopy
[13] = test system: DU145 cells; assay: as above; type: cell-based, Human
Method: DU145 cells were grown on 8-well chamber slides (Nunc, Naperville, Ill.) to a confluence of 80%. These cells were then incubated with diluent or different concentrations of peptides in RPMI without serum for 1 h at 37° C. The cells were washed three times with cold PBS to remove the extracellular peptides and then fixed with 3.5% paraformaldehyde solution in PBS at 4° C. for 20 min. The fixed cells were washed three times with cold PBS and treated with 0.25% Triton X-100 for 10 min. The washed cells were then incubated with anti-peptide IgG in PBS for 1 h. After three 5 min washings with PBS, the intracellular peptides (via peptide-antibody complexes) were subsequently detected with FITC-labeled goat anti-rabbit IgG (Pierce, Rockford, Ill.) after 1 h incubation. Cover slips with stained cells were mounted in Poly/Mount (Polysciences, Warrington, Pa.) and analyzed with Microstar IV (Reichard, Buffalo, N.Y.) using a 100× oil immersion lens. The color images were analyzed using a Pixera digital camera and stored in JPG format. The same assay was also utilized for determining peptide cellular import in other cell lines, including PC3, LNCaP, and neuroblastoma N2a cells.

CSCC[C@H](NC(=O)[C@H](CC(C)C)NC(=O)[C@H](CCCCN)NC(=O)[C@H](CCC(N)=O)NC(=O)[C@H](CCCNC(=N)N)NC(=O)[C@H](CCCCN)NC(=O)[C@H](CCCNC(=N)N)NC(=O)[C@H](CCC(N)=O)NC(=O)[C@@H](NC(=O)[C@H](C)NC(=O)[C@H](CC(C)C)NC(=O)[C@H](C)NC(=O)[C@H](CC(C)C)NC(=O)[C@H](C)NC(=O)[C@H](CC(C)C)NC(=O)[C@H](C)NC(=O)[C@H](CC(C)C)NC(=O)[C@H](CCCCN)NC(=O)[C@H](CC(C)C)NC(=O)[C@@H](N)CCCCN)C(C)C)C(=O)N1CCC[C@H]1C(=O)O [CB5005] (H-KLKLALALALAVQRKRQKLMP-OH; N-terminus and C-terminus assumed)
cellular import (cell permeability) [1]: cell-permeable
sensitization to etoposide-induced apoptosis [2]: sensitized
sensitization to etoposide-induced apoptosis [3]: did not sensitize
promotion of cisplatin-induced apoptosis compared with SN50 (flow cytometry) ([4]; 18 μM each peptide, cisplatin 5 μg/ml, 21 h): significantly more activity than SN50
increase in apoptosis compared to cisplatin alone ([4]; 30 μM co-treatment with cisplatin, DU145): about 15 fold
induction of apoptosis by peptide alone (flow cytometry) ([4]; 30 μM, without cisplatin, 21 h): partially effective; also recorded: quite active
induction of apoptosis by co-treatment with cisplatin (flow cytometry) ([4]; CB5005 30 μM, CB5003 72 μM, CB5002 72 μM, cisplatin 5 μg/ml, 21 h): significantly induced the apoptosis
synergistic activity in enhancing the apoptosis induced by cisplatin (dependence on concentration) ([4]; DU145, flow cytometry): concentration-dependent
synergistic activity when cisplatin dosage reduced from 5 μg/ml to 2 μg/ml ([4]; DU145, flow cytometry): not changed greatly
sensitizing the apoptosis induced by TNFα ([4]; TNF-α 10 ng/ml, 21 h): capable of sensitizing
percentage of apoptotic cells ([4]; co-treated with etoposide 2 μg/ml and peptide 30 μM for 21 h): ~60%
induction of apoptosis by co-treatment vs anticancer drugs alone at 20-30 μg/ml ([4]; co-treatment with cisplatin or etoposide 2 μg/ml): much more effective
cellular import (cell permeability) [5]: cell-permeable
promotion of cisplatin-induced apoptosis compared with SN50 (TUNEL) ([6]; cisplatin 5 μg/ml, 16 h, side-by-side with SN50): significantly more activity than SN50
sensitizing activity to cisplatin-induced apoptosis (TUNEL) ([6]; peptide 30 min, then cisplatin 5 μg/ml 16 h, CB5003 40 μM, CB5002 72 μM, CB5007 30 μM): concentration-dependent
concentration at which sensitizing activity reaches maximum ([6]; with cisplatin 5 μg/ml, 16 h): 20 µM
apoptosis induced by peptide alone (TUNEL) ([6]; without cisplatin, 16 h): low level of apoptosis
caspase-3 activity [7]: elevated
fluorescence accumulation of imported peptide ([8]; 1 h): 628.00±75.60
fluorescence accumulation of imported peptide ([8]; 4 h): 737.33±37.10
fluorescence accumulation of imported peptide ([8]; 20 h): 1,042±58.40
TNF-α-induced NF-κB nuclear translocation [9]: inhibited
TNF-α-induced NF-κB nuclear translocation [10]: inhibited
induction of apoptosis (annexin V-FITC staining) [11]: apoptosis was induced
cellular import (cell permeability) [12]: cell-permeable
cellular import activity compared with SN50 ([13]; DU145 cells, 30 μM for 1 h, side-by-side with SN50): significantly higher import activity than SN50
cellular import (cell permeability) ([13]; DU145 cells, 30 μM, 1 hour, 37° C., fluorescence microscopy): cell-permeable
cellular import activity ([13]; different concentrations of peptides, 1 h at 37° C.): concentration-dependent
